Data published in paper PMC9561960.
Results are given in words; binding and its absence hold for the method and conditions named. Binding seen in cells or lysates may run through a third protein. Some results given as binding are weak or reduced against the parent protein; the word gives no strength. Tags and fused reporters may be left off the sequences shown.

Target: SARS-CoV-2 NSP4 containing a Strep-II tag (SARS-CoV-2) (UniProt P0DTD1)
Experiment: co-IP

B1: BCL2 antagonist/killer (BAK) (protein, UniProt Q16611 1-211)
chain: MASGQGPGPPRQECGEPALPSASEEQVAQDTEEVFRSYVFYRHQQEQEAEGVAAPADPEMVTLPLQPSSTMGQVGRQLAIIGDDINRRYDSEFQTMLQHLQPTAENAYEYFTKIATSLFESGINWGRVVALLGFGYRLALHVYQHGLTGFLGQVTRFVVDFMLHHCIARWIAQRGGWVAALNLGNGPILNVLVVLGVVLLGQFVVRRFFKS
binding: binds
